Data set [1] deals with retrosplenial cortex (RSP). The experiment in a line: Two-photon imaging of retrosplenial cortex. In kind it is in vivo, mouse. The protocol: Mice were anesthetized with isoflurane and the skull above retrosplenial cortex was removed and replaced with a 7 mm circular glass coverslip. For layer 1 experiments, Thy1GcaMP6s mice were used. For layer 2/3 experiments, Cux2-CreER; Ai148 mice were used (tamoxifen dissolved in corn oil was injected intraperitoneally at 0.1 mg/g at least 2 weeks prior to imaging). For layer 5 experiments, Rbp4-Cre mice were injected locally in retrosplenial with 800 nL AAVdj-Ef1a-DIO-GCaMP6f (titer 5E12) at stereotactic coordinates (−3AP, 0.5ML, −0.6DV). Mice were given >=1 week to recover before imaging. Awake, head-fixed imaging was performed on a standard two photon microscope (NeuroLabWare, Los Angeles, CA). A 16x 0.8 NA Nikon objective was immersed in clear ultrasound gel for imaging (Aquasonic, Parker Laboratories); frame rate of 30 Hz. […]
Two-photon tiff stack videos were registered to the average image using the TurboReg ImageJ plug-in using rigid body transformations. […] The resulting traces were detrended and z-scored. The full frame fluorescence (used for quantifying layer 1 neuropil oscillations) was computed by summing all of the pixels in each frame on each time point, and then computing DF/F the same way, with no neuropil subtraction step. […]

For data set [2], the system named is retrosplenial cortex (RSP). Nature of the data set: Retrosplenial gene disruption (HCN1, GRIN1) and fiber photometry. In kind it is in vivo, mouse. The method, then: A 405 nm and 470 nm LED illumination (Thorlabs) was combined (425 nm longpass, Thorlabs DMLP425) and coupled into a fiber optic patch cord (400 μm diameter, 0.48 NA, Doric Lenses) using a longpass dichroic (505 nm, Thorlabs DMLP505) and a fixed-focused coupler/collimator with a standard FC connector (F240FC-A, NA 0.51, f=7.9 mm)^47,48. Each illumination channel was frequency modulated using the sync output from a lock-in amplifier (SR810 DSP, Stanford Research Systems).
Analysis was performed using custom MATLAB (MathWorks) scripts. Widefield imaging videos were registered to a 2D top-projection atlas generated from the annotated Allen Brain Atlas volume, version CCFv2, in MATLAB (MathWorks), using an affine transformation computed from four manually selected control points. Each video was DF/F normalized, using the median for each pixel over the entire time series as F. The 410 nm channel was then temporally smoothed using a moving average (width=400 ms). The smoothed 410 nm DF/F signal for each pixel was regressed onto the 488 nm DF/F signal for the corresponding pixel, and the regression coefficients were used to scale the 410 nm channel to the 488 nm channel. This scaled 410 nm DF/F signal was then subtracted from the 488 nm DF/F signal to produce a normalized signal for each pixel. For quantification, activity traces were extracted from points centered in five cortical regions (visual, somatosensory, parietal, motor, retrosplenial) on the left hemisphere of the brain. The video data was Gaussian smoothed spatially (radius=2 pixels). Similarly, for fiber photometry recordings, the 410 nm signal was regressed onto the 488 nm signal, the 410 nm signal was scaled by the regression coefficients, and then subtracted from the 488 nm signal.
Stereotaxic Surgery: Adult male and female HCN1^f/f, NR1^f/f, or wildtype C57/BI6 were injected bilaterally in two retrosplenial locations (AP −3.1 and −3.4, ML+/−0.5, DV −0.5) with 1 uL of AAV8-Ef1 a-mCherry-IRES-Cre (titer 5E11) and AAVdj-Ef1a-DIO-GCaMP6m (titer 1E13). A 400-micron optical fiber was implanted over one injection location. […]

For the compound `CNC1(c2ccccc2Cl)CCCCC1=O` (centres unmarked) [ketamine], the entries for the “Hedge's g effect-size, mean 1-3 Hz power before/after ketamine across cells” value in data set [1] (layer 2/3) and in data set [1] (layer 5) were −0.46 and 3.16, respectively. The “Hedge's g effect-size, oscillation-power pre/post ketamine” value in data set [2] (GRIN1 knockout) is given as 2.03; in data set [2] (HCN1 knockout) it was 1.02; in data set [2] (WT), 3.22.
